Data as given in PubChem BioAssay AID1259284 (Sanger Institute, 2017).

Screen: 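siRNA screen across the kinome seeking partners for BYL719, cetuximab or trametinib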 (primary screen)
System: SW48 human colorectal cancer cells
Reagents: siRNA pool against human genes
Challenge: anchor drug BYL719 at 1 µM, cetuximab at 5 µg/ml or trametinib at 10 nM, or DMSO vehicle alone
Measured: 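Viability scaled to non-targeting control pool, robust z-score from controls, and synergy scores for each drug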
Direction: robust z-score, no drug: higher = more cells survive knock-down; viability, no drug: higher = more viable cells
Call rule: 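a knock-down is essential if viability without drug gives a robust z-score under -3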
Meaning of the calls: active = essential without drug; inactive = no change without drug
Here is a random part of 794 deposited reagents. Over the whole deposit, 16 (2%) are marked active. 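Calls concern knock-down without drug only; drug synergy was judged apart, with scores above 0.15 taken as synergy.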 No viability above 1 is reported: the scale is capped. Further read-outs or replicates are left out here. Not stated in the record: the amount of reagent, the time to read-out.

Silencing of MAP3K14 (GeneID 9020) came out at: robust z-score, no drug 0.426; viability, no drug (fraction of control) = 1; inactive. TYK2 (GeneID 7297) showed robust z-score, no drug 0.426; viability, no drug (fraction of control) = 1; inactive. After knock-down of WHR1 (GeneID 8859), the record shows robust z-score, no drug 0.426; viability, no drug (fraction of control) = 1; inactive. For ROR2 (GeneID 4920) the deposit lists robust z-score, no drug 0.322; viability, no drug (fraction of control) = 0.991; inactive. With knock-down of WNK1 (GeneID 65125), the screen gave robust z-score, no drug -0.244; viability, no drug (fraction of control) = 0.943; inactive. TCF7L2 (GeneID 6934) gave robust z-score, no drug 0.426; viability, no drug (fraction of control) = 1; inactive.

GSK3A (GeneID 2931) scored robust z-score, no drug 0.426; viability, no drug (fraction of control) = 1; inactive. For BMPR2 (GeneID 659) the deposit lists robust z-score, no drug 0.341; viability, no drug (fraction of control) = 0.993; inactive. PIK3CG (GeneID 5294) gave robust z-score, no drug -0.428; viability, no drug (fraction of control) = 0.927; inactive. With knock-down of AMHR2 (GeneID 269), the screen gave robust z-score, no drug 0.426; viability, no drug (fraction of control) = 1; inactive. For TP53RK (GeneID 112858) the deposit lists robust z-score, no drug 0.426; viability, no drug (fraction of control) = 1; inactive. Depletion of MAP3K19 (GeneID 80122) came out at: robust z-score, no drug 0.426; viability, no drug (fraction of control) = 1; inactive.

Depletion of PDGFRA (GeneID 5156) gave: robust z-score, no drug 0.426; viability, no drug (fraction of control) = 1; inactive. PIP5K1A (GeneID 8394) scored robust z-score, no drug -2.22; viability, no drug (fraction of control) = 0.773; inactive. With knock-down of PAK5 (GeneID 57144), the screen gave robust z-score, no drug 0.426; viability, no drug (fraction of control) = 1; inactive. Against KCNH8 (GeneID 131096), the entry reads robust z-score, no drug -1.24; viability, no drug (fraction of control) = 0.857; inactive. Against BMAL1 (GeneID 406), the values are robust z-score, no drug -2.05; viability, no drug (fraction of control) = 0.788; inactive. Depletion of CREBBP (GeneID 1387) came out at: robust z-score, no drug 0.426; viability, no drug (fraction of control) = 1; inactive.

For AK4 (GeneID 205), the entry reads robust z-score, no drug 0.426; viability, no drug (fraction of control) = 1; inactive. After knock-down of SYNCRIP (GeneID 10492) the results were robust z-score, no drug -0.951; viability, no drug (fraction of control) = 0.882; inactive. FBXW7 (GeneID 55294) gave robust z-score, no drug 0.426; viability, no drug (fraction of control) = 1; inactive. Against BRSK1 (GeneID 84446), the entry reads robust z-score, no drug 0.038; viability, no drug (fraction of control) = 0.967; inactive. Knock-down of MAST3 (GeneID 23031) resulted in: robust z-score, no drug 0.426; viability, no drug (fraction of control) = 1; inactive. Knock-down of PDK2 (GeneID 5164) gave: robust z-score, no drug 0.426; viability, no drug (fraction of control) = 1; inactive.

Depletion of MAP3K6 (GeneID 9064) resulted in: robust z-score, no drug 0.426; viability, no drug (fraction of control) = 1; inactive. Against PKIA (GeneID 5569), the entry reads robust z-score, no drug 0.426; viability, no drug (fraction of control) = 1; inactive. Knock-down of STAG2 (GeneID 10735) resulted in: robust z-score, no drug 0.426; viability, no drug (fraction of control) = 1; inactive. Depletion of IKBKB (GeneID 3551) gave: robust z-score, no drug 0.426; viability, no drug (fraction of control) = 1; inactive.

Reformatted: 2 of the entries above.
| target | robust z-score, no drug | viability, no drug (fraction of control) | Call |
| --- | --- | --- | --- |
| PDGFRA (GeneID 5156) | 0.426 | 1 | inactive |
| PIP5K1A (GeneID 8394) | -2.22 | 0.773 | inactive |
